Taken from: PubChem BioAssay AID1508588 (Peter MacCallum Cancer Centre, 2020)

Assay: 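Which gene losses make BRAF-mutant melanoma cells more responsive to vemurafenib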 (primary screen)
Cell system: human WM266.4 melanoma cells (BRAF V600 mutant)
Reagents: siRNA pool against human genes, 40 nM
Timing: 96 h from transfection to read-out
Treatment: vemurafenib 300 nM (about IC25), added 48 h after transfection, for 48 h; comparison arm got DMSO vehicle only
Measurement: 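Cell gain (DAPI nuclei at end minus before drug, mean of two replicates) and medium lactate by absorbance per cell, both as ratio to non-targeting siRNA, also grouped into fold-change classes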
Direction: cell gain with vemurafenib: higher = more cell gain than with non-targeting siRNA; lactate per cell with vemurafenib: higher = more lactate made per cell
Hit rule: 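Enhancement is called by pairing each knock-down's vehicle-arm and drug-arm fold-change classes for viability or glycolysis; which class combinations qualify is not given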
Meaning of the calls: active = enhances vemurafenib effect; inactive = no enhancement seen
Here is an unselected part of about 18,000 deposited reagents. 790 of all reagents (4.4%) were called active. 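Calls rest on a combination of fold-change classes in drug and vehicle arms, not all shown here.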 Reagent sequences are not shown.

| gene knocked down | cell gain with vemurafenib | lactate per cell with vemurafenib | Outcome |
| --- | --- | --- | --- |
| YPEL5 (GeneID 51646) | 0.52 | 0.5 | inactive |
| CLTRN (GeneID 57393) | 0.47 | 0.78 | inactive |
| SLC35A4 (GeneID 113829) | 0.79 | 0.59 | inactive |
| MBTPS1 (GeneID 8720) | 0.43 | 1.13 | inactive |
| GLYAT (GeneID 10249) | 0.58 | 1.35 | inactive |
| LYSMD1 (GeneID 388695) | 0.7 | 0.73 | inactive |
| CELA3A (GeneID 10136) | 0.76 | 0.9 | inactive |
| AP1M1 (GeneID 8907) | 0.85 | 1.16 | inactive |
| GNGT2 (GeneID 2793) | 0.28 | 0.2 | inactive |
| ACTA2 (GeneID 59) | 0.82 | 0.94 | inactive |
| PTPN4 (GeneID 5775) | 0.83 | 0.48 | inactive |
| RBM47 (GeneID 54502) | 0.3 | 0.3 | inactive |
| CEP57 (GeneID 9702) | 0.5 | 0.62 | inactive |
| TAAR5 (GeneID 9038) | 0.53 | 2.08 | inactive |
| CREB3L4 (GeneID 148327) | 0.45 | 1.15 | inactive |
| KY (GeneID 339855) | 0.01 | 0.17 | inactive |
| CFAP299 (GeneID 255119) | 0.26 | 0.58 | inactive |
| ETS2-AS1 (GeneID 400867) | 1.04 | 0.73 | inactive |
| EPPK1 (GeneID 83481) | 1.34 | 0.78 | inactive |
| FAM124B (GeneID 79843) | 0.54 | 0.71 | inactive |
| DKK3 (GeneID 27122) | 0.22 | 0.7 | inactive |
| PON1 (GeneID 5444) | 0.76 | 0.76 | inactive |
| HSD17B1 (GeneID 3292) | 1.23 | 1.19 | inactive |
| ARID3C (GeneID 138715) | 0.6 | 0.54 | inactive |
| ZBTB24 (GeneID 9841) | 0.66 | 0.8 | inactive |
| TOR1AIP1 (GeneID 26092) | 0.58 | 0.57 | inactive |
| COPE (GeneID 11316) | 0.33 | 1.28 | inactive |
| ZNF691 (GeneID 51058) | 0.89 | 0.73 | inactive |
| MBD3L1 (GeneID 85509) | 0.64 | 1.5 | inactive |
| PRRX1 (GeneID 5396) | 0.75 | 0.89 | inactive |
| STYX (GeneID 6815) | 0.3 | 0.84 | inactive |
| CDH9 (GeneID 1007) | 0.39 | 1.24 | inactive |
| SRSF10 (GeneID 10772) | 1.12 | 0.82 | inactive |
| RFC3 (GeneID 5983) | 1.31 | 0.16 | active |
| ISY1 (GeneID 57461) | 0.42 | 1.15 | inactive |
| MTR (GeneID 4548) | 0.55 | 0.5 | inactive |
| OBP2A (GeneID 29991) | 0.46 | 1.7 | inactive |
| MCM7 (GeneID 4176) | 0.54 | 0.82 | inactive |
| PABIR2 (GeneID 159090) | 1.01 | 0.98 | inactive |
| PRDM8 (GeneID 56978) | 0.36 | 1.09 | inactive |
| WWC2 (GeneID 80014) | 0.1 | 1.29 | inactive |
| UBE2N (GeneID 7334) | 0.63 | 0.66 | inactive |
| ARGLU1 (GeneID 55082) | 0.43 | 1.21 | inactive |
| GJB5 (GeneID 2709) | 0.95 | 0.77 | inactive |
| CDPF1 (GeneID 150383) | 0.27 | 1.64 | inactive |
| SULT4A1 (GeneID 25830) | 0.7 | 0.38 | inactive |
| PLEKHH3 (GeneID 79990) | 0.82 | 0.73 | inactive |
| TOMM20L (GeneID 387990) | 0.56 | 0.72 | inactive |
| CXCL10 (GeneID 3627) | 0.72 | 0.49 | active |
| ZNF664 (GeneID 144348) | 0.47 | 0.75 | inactive |
| BTBD6 (GeneID 90135) | 0.57 | 0.54 | inactive |
| RUNX3 (GeneID 864) | 0.27 | 0.76 | inactive |
| KPNA2 (GeneID 3838) | 0.98 | 0.64 | active |
| FSHB (GeneID 2488) | 1.04 | 0.64 | inactive |
| AHDC1 (GeneID 27245) | 0.16 | 0.68 | inactive |
| C18orf54 (GeneID 162681) | 0.44 | 0.96 | inactive |
| RETREG1 (GeneID 54463) | 0.4 | 1.29 | inactive |
| RFXAP (GeneID 5994) | 0.29 | 1.42 | inactive |
| C3orf38 (GeneID 285237) | 0.18 | 2.16 | inactive |
| DCX (GeneID 1641) | 0.48 | 1.04 | inactive |
| DHPS (GeneID 1725) | 1 | 0.38 | active |
| RIT2 (GeneID 6014) | 0.97 | 0.55 | inactive |
| RERE (GeneID 473) | 0.65 | 1.75 | inactive |
| DCLK2 (GeneID 166614) | 0.35 | 1.07 | inactive |
| LRRFIP2 (GeneID 9209) | 0.52 | 1 | inactive |
| HLA-DRB1 (GeneID 3123) | 1.04 | 1.84 | inactive |
| METTL15 (GeneID 196074) | 0.79 | 0.94 | inactive |
| BAGE2 (GeneID 85319) | 0.06 | 0.68 | active |
| RETREG3 (GeneID 162427) | 0.22 | 1.75 | inactive |
| EIF3C (GeneID 8663) | 0.06 | 0.97 | inactive |
| ATP6V0A2 (GeneID 23545) | 0.6 | 1.3 | inactive |
| CPZ (GeneID 8532) | 0.11 | 0.96 | inactive |
| KIF2C (GeneID 11004) | 0.96 | 0.94 | inactive |
| APPBP2 (GeneID 10513) | 0.71 | 0.68 | inactive |
| PEX6 (GeneID 5190) | 0.26 | 2.17 | inactive |
| SLU7 (GeneID 10569) | 0.2 | 0.88 | inactive |
| PCNX2 (GeneID 80003) | 1.01 | 0.68 | inactive |
| ZNF217 (GeneID 7764) | 0.71 | 0.9 | inactive |
| PABIR3 (GeneID 159091) | 0.46 | 1.28 | inactive |
| MLLT6 (GeneID 4302) | 1.13 | 0.52 | inactive |
| HYAL2 (GeneID 8692) | 1.01 | 0.52 | inactive |
| ZC3H18 (GeneID 124245) | 0.47 | 1.62 | inactive |
| HOOK3 (GeneID 84376) | 0.89 | 0.99 | inactive |
| OMP (GeneID 4975) | 0.25 | 3.16 | inactive |

Only “cell gain with vemurafenib”, for 11 of the entries above:
PTPN4 (GeneID 5775) = 0.83
RBM47 (GeneID 54502) = 0.3
CEP57 (GeneID 9702) = 0.5
TAAR5 (GeneID 9038) = 0.53
CREB3L4 (GeneID 148327) = 0.45
KY (GeneID 339855) = 0.01
CFAP299 (GeneID 255119) = 0.26
ETS2-AS1 (GeneID 400867) = 1.04
EPPK1 (GeneID 83481) = 1.34
FAM124B (GeneID 79843) = 0.54
DKK3 (GeneID 27122) = 0.22
